According to PMC7817217:
These are yes or no findings as the source states them, for the method shown.

Target: bACE2-Rm (bat ACE2 from Rhinolophus macrotis) expressed in insect cells, residues 19 to 615 (Rhinolophus macrotis) (UniProt E2DHI3)
Assay: SPR; both purified

For “SARS-CoV spike receptor binding domain (SARS-RBD) (from UniProt P59594 306-527) (domain or fragment)”, the binding was “no binding (tested: 31.25 nM to 1 μM)”.
